From paper PMC10850104
No constants are given. Whether binding was seen depends on the method and setting. In cells and extracts the contact can be indirect. Some results given as binding are weak or reduced against the parent protein; the word gives no strength.

The chains behind the UniProt entries cited, without tags or fusion partners. Residues count along the entry.
UniProt P19022, residues 160-906: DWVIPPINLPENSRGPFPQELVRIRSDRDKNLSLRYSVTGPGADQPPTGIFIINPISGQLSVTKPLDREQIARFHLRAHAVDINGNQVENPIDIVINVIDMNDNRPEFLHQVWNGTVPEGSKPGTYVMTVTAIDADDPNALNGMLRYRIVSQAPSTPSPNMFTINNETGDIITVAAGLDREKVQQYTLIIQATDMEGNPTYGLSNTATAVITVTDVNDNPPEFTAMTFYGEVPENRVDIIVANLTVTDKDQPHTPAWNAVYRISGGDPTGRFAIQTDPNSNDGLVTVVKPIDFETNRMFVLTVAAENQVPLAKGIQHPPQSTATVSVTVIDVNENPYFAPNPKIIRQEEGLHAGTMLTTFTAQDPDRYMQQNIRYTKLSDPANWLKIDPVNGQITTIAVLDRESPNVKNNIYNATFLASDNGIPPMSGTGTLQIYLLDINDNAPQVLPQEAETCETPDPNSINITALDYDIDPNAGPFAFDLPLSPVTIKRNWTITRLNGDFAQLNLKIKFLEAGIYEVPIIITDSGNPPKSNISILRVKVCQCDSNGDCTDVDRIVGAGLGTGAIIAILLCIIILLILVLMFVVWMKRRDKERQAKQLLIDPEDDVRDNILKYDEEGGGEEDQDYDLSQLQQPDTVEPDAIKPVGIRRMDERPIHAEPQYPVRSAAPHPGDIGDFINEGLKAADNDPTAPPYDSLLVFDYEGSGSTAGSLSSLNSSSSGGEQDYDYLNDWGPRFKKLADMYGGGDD
UniProt P35222: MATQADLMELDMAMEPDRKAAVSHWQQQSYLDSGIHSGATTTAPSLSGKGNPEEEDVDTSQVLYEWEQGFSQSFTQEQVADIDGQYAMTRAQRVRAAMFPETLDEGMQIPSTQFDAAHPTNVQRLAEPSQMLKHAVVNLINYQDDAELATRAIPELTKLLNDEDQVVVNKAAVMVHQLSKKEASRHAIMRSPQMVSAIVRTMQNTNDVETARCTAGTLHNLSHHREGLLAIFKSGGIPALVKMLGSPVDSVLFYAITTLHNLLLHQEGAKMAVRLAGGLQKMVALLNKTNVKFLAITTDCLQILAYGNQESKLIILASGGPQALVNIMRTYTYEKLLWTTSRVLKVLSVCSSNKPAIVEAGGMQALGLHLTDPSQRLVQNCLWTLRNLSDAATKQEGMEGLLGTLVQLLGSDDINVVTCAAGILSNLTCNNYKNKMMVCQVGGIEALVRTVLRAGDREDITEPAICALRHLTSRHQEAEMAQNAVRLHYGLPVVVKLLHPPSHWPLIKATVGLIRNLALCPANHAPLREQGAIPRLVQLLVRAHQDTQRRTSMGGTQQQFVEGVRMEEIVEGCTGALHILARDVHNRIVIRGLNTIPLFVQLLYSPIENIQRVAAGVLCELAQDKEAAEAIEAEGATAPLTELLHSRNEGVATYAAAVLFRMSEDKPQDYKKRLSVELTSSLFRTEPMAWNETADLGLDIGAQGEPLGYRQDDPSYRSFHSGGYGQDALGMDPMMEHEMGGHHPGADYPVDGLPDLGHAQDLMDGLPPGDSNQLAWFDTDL

B1: δ1-catenin (protein, UniProt O60716 1-968)
chain: MDDSEVESTASILASVKEQEAQFEKLTRALEEERRHVSAQLERVRVSPQDANPLMANGTLTRRHQNGRFVGDADLERQKFSDLKLNGPQDHSHLLYSTIPRMQEPGQIVETYTEEDPEGAMSVVSVETSDDGTTRRTETTVKKVVKTVTTRTVQPVAMGPDGLPVDASSVSNNYIQTLGRDFRKNGNGGPGPYVGQAGTATLPRNFHYPPDGYSRHYEDGYPGGSDNYGSLSRVTRIEERYRPSMEGYRAPSRQDVYGPQPQVRVGGSSVDLHRFHPEPYGLEDDQRSMGYDDLDYGMMSDYGTARRTGTPSDPRRRLRSYEDMIGEEVPSDQYYWAPLAQHERGSLASLDSLRKGGPPPPNWRQPELPEVIAMLGFRLDAVKSNAAAYLQHLCYRNDKVKTDVRKLKGIPVLVGLLDHPKKEVHLGACGALKNISFGRDQDNKIAIKNCDGVPALVRLLRKARDMDLTEVITGTLWNLSSHDSIKMEIVDHALHALTDEVIIPHSGWEREPNEDCKPRHIEWESVLTNTAGCLRNVSSERSEARRKLRECDGLVDALIFIVQAEIGQKDSDSKLVENCVCLLRNLSYQVHREIPQAERYQEAAPNVANNTGPHAASCFGAKKGKDEWFSRGKKPIEDPANDTVDFPKRTSPARGYELLFQPEVVRIYISLLKESKTPAILEASAGAIQNLCAGRWTYGRYIRSALRQEKALSAIADLLTNEHERVVKAASGALRNLAVDARNKELIGKHAIPNLVKNLPGGQQNSSWNFSEDTVISILNTINEVIAENLEAAKKLRETQGIEKLVLINKSGNRSEKEVRAAALVLQTIWGYKELRKPLEKEGWKKSDFQVNLNNASRSQSSHSYDDSTLPLIDRNQKSDKKPDREEIQMSNMGSNTKSLDNNYSTPNERGDHNRTLDRSGDLGDMEPLKGTTPLMQDEGQESLEEELDVLVLDDEGGQVSYPSMQKI

Columns and labels:
[1] = target: N-cadherin (human (endogenous in WM793)) (UniProt P19022); experiment: proximity ligation; PLA on paraffin sections of a human melanoma tissue microarray (ME1004h) after antigen retrieval; PLA foci counted per cell
[2] = target: N-cadherin (human (endogenous in WM793)) (UniProt P19022); experiment: co-IP; precleared lysates (400 μg) of shNT/shFUT4 WM793 cells, anti-N-cadherin or control IgG, protein A/G agarose beads, 4 °C, washed with PBS, immunoblot
[3] = target: N-cadherin (human (endogenous in WM793)) (UniProt P19022); experiment: proximity ligation; Duolink in situ PLA with two primary antibodies on fixed, permeabilised coverslip-grown melanoma cells (WM793); EV/FUT4-OE, shNT/shFUT4, 2FF, ARi, AR knockdown, DHT; foci per cell counted

| Molecule | binding [1] | binding [2] | binding [3] |
| --- | --- | --- | --- |
| β-catenin (from UniProt P35222 1-781) | binds | binds | binds |
| B1 |  |  | binds |
